Taken from: PubChem BioAssay AID1053208 (Peter MacCallum Cancer Centre, 2014)
In all, the deposit lists about 17,000 reagents; shown is a part drawn at random. 788 of them (4.7%) count as active. 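Calls rest on z-score classes alone; an extra cut-off of viability at most 70% of control was not applied to them.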 Entries without a mark were called inactive. Further read-outs or replicates are left out here. No sequences are given here.

- Purpose: 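Find knock-downs that sensitise mouse osteosarcoma cells to doxorubicin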 (primary screen)
- Cell system: mouse osteosarcoma cells, early-passage culture from an engineered mouse model of fibroblastic bone tumour
- Knock-down reagent: siRNA pool against mouse genes, 40 nM
- Time to read-out: about 120 h (48 h before drug, then 72 h with drug)
- Treatment: doxorubicin 100 nM for 72 h, roughly 30-40% inhibitory dose
- Read-out: 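Viability read as ATP luminescence after 72 h of 100 nM doxorubicin or none, duplicate wells averaged, scaled to non-targeting siRNA, then expressed as robust z-scores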
- Direction: viability z-score with doxorubicin: higher = more viable cells under doxorubicin; viability z-score without drug: higher = more viable cells with knock-down alone
- Rule for the call: 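a pool counts as active when its viability z-score with doxorubicin is -2 or below and its z-score without drug lies between -2 and 2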

| combined z-score class | viability z-score with doxorubicin | viability z-score without drug | gene |
| --- | --- | --- | --- |
| no change with or without drug | -0.79 | -0.84 | Nomo1 |
| no change with or without drug | 0.9 | -0.17 | Ppt2 |
| no change with or without drug | -0.67 | 1.01 | Col2a1 |
| no change with or without drug | -0.56 | -0.67 | Dnaaf10 |
| high cell count without drug only | 1.69 | 2.02 | Rasgrp1 |
| no change with or without drug | -1.91 | -1.01 | Srsf11 |
| no change with or without drug | 1.01 | 1.35 | 9130401M01Rik |
| high cell count with doxorubicin only | 2.02 | 1.52 | Dctn6 |
| no change with or without drug | 1.24 | 0.51 | Haus2 |
| no change with or without drug | -0.22 | -0.84 | Ccnk |
| low cell count with and without drug | -4.72 | -2.19 | Eif4a1 |
| no change with or without drug | 1.69 | -0.17 | Gla |
| no change with or without drug | 1.01 | 1.85 | Echdc2 |
| no change with or without drug | 0.22 | -0.17 | Sp5 |
| no change with or without drug | 0 | -0.34 | Wars1 |
| no change with or without drug | -0.34 | 1.18 | C2cd2 |
| no change with or without drug | 0.22 | -0.84 | Camp |
| no change with or without drug | 0 | 0.34 | Ascl2 |
| no change with or without drug | -0.9 | 0.51 | Zfp54 |
| no change with or without drug | -1.12 | -1.69 | Rps6ka1 |
| no change with or without drug | -1.91 | 1.35 | Ezh2 |
| no change with or without drug | 1.35 | 1.01 | Odr4 |
| no change with or without drug | -0.67 | -0.17 | Crispld2 |
| no change with or without drug | 0.9 | 0.51 | Harbi1 |
| no change with or without drug | 1.12 | 0.51 | Cts3 |
| no change with or without drug | 0.67 | -1.69 | Ppp1r1c |
| no change with or without drug | 0.22 | 0.34 | Vmn1r85 |
| low cell count with doxorubicin only (active) | -2.25 | -1.18 | Ttc7 |
| no change with or without drug | 0.9 | -0.67 | Suz12 |

The list goes on, starting with the last 6 of the part before.
| combined z-score class | viability z-score with doxorubicin | viability z-score without drug | gene |
| --- | --- | --- | --- |
| no change with or without drug | 0.9 | 0.51 | Harbi1 |
| no change with or without drug | 1.12 | 0.51 | Cts3 |
| no change with or without drug | 0.67 | -1.69 | Ppp1r1c |
| no change with or without drug | 0.22 | 0.34 | Vmn1r85 |
| low cell count with doxorubicin only (active) | -2.25 | -1.18 | Ttc7 |
| no change with or without drug | 0.9 | -0.67 | Suz12 |
| no change with or without drug | 0.67 | 0.51 | Fancb |
| no change with or without drug | -0.9 | -1.01 | Wdr33 |
| no change with or without drug | 0.9 | -0.67 | Kyat3 |
| no change with or without drug | -1.8 | -1.85 | Vmn1r148 |
| no change with or without drug | -0.22 | 0.51 | Hspa1a |
| no change with or without drug | 0.34 | -0.17 | Elovl1 |
| no change with or without drug | 0.22 | 0.67 | Calm3 |
| no change with or without drug | 0.22 | 1.18 | Dio2 |
| no change with or without drug | 0.9 | -0.51 | Tenm3 |
| no change with or without drug | 0 | -0.17 | Tob1 |
| no change with or without drug | 0.22 | -1.18 | Mtmr1 |
| no change with or without drug | 0.9 | 0.51 | Gpatch1 |
| no change with or without drug | 0.22 | 0.17 | Tas2r120 |
| no change with or without drug | -0.34 | -0.34 | Zfp386 |
| no change with or without drug | -1.57 | -0.34 | Pmel |
| no change with or without drug | 0 | 0.17 | Psen2 |
| no change with or without drug | -1.24 | 0.67 | Fbxl12 |
| high cell count without drug only | -1.69 | 2.19 | Elmod2 |
| no change with or without drug | -1.24 | 0.84 | Top1mt |
| high cell count with doxorubicin only | 3.04 | 1.52 | Sprr2g |
| no change with or without drug | 0.22 | 0.51 | Vamp8 |
| no change with or without drug | -0.11 | -0.84 | Nol6 |
| no change with or without drug | 1.91 | 1.18 | Spire1 |
| no change with or without drug | 0.56 | 0.51 | Slc25a20 |
| low cell count with doxorubicin only (active) | -2.59 | -1.52 | Pdzrn3 |
| low cell count with doxorubicin only (active) | -4.38 | 0 | Rpa3 |
| no change with or without drug | 0.34 | -0.17 | Slc66a1 |
| no change with or without drug | -1.35 | 0.51 | Rbp1 |
| no change with or without drug | 0.22 | 0.34 | Or5h19 |
| no change with or without drug | -0.22 | -0.51 | Txlng |
| high cell count without drug only | 1.8 | 2.7 | Rbm10 |
| no change with or without drug | -0.67 | 0.17 | Or9e1 |
| low cell count without drug only | -1.57 | -2.87 | Srebf2 |
| no change with or without drug | 0.67 | 0.51 | Smim14 |
